Source: EP2226633A1
These are yes or no findings as the source states them, for the method shown. Binding seen in cells or lysates may run through a third protein. Some entries that bind do so weakly or less than the wild type. Where a sequence is shown, tags or fusion partners need not be part of it.

Columns and labels:
[1] = target: T1, human LIFRα from HEK 293 cell extracts (human) (UniProt P42702); assay: GST pull-down, HEK cell extracts as prey, anti-LIFR Western blot
T1 sequence (looked up): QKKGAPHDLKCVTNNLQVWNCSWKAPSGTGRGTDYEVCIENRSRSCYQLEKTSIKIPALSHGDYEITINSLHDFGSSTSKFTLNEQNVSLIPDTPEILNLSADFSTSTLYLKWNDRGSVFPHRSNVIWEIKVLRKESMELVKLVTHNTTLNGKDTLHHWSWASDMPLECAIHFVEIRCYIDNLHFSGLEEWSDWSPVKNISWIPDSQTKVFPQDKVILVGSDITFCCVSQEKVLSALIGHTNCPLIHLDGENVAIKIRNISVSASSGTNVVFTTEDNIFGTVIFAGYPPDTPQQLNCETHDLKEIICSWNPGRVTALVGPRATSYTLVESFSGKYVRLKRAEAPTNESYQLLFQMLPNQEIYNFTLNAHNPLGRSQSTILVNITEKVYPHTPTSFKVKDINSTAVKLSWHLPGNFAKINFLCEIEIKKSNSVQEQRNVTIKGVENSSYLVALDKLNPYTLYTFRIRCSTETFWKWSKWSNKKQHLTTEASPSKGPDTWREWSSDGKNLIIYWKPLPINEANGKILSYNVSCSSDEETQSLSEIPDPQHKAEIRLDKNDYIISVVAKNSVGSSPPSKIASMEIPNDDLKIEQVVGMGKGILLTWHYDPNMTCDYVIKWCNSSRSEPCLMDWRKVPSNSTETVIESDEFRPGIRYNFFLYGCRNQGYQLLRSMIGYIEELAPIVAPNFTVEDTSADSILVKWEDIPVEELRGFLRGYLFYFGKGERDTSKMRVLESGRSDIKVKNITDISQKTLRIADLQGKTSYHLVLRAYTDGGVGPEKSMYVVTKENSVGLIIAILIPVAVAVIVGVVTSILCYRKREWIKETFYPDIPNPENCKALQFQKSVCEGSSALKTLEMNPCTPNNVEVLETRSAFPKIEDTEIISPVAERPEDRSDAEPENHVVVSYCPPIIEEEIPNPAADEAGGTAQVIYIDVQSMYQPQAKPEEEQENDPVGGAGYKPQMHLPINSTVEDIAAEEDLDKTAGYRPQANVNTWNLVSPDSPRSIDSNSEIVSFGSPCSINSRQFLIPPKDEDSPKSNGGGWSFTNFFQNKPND

[2] = target: T2, rat LIFRα of rat primary cortical neurons (rat) (UniProt O70535); assay: GST pull-down, rat primary cortical neuron extracts as prey, anti-LIFR Western blot
T2 sequence (looked up): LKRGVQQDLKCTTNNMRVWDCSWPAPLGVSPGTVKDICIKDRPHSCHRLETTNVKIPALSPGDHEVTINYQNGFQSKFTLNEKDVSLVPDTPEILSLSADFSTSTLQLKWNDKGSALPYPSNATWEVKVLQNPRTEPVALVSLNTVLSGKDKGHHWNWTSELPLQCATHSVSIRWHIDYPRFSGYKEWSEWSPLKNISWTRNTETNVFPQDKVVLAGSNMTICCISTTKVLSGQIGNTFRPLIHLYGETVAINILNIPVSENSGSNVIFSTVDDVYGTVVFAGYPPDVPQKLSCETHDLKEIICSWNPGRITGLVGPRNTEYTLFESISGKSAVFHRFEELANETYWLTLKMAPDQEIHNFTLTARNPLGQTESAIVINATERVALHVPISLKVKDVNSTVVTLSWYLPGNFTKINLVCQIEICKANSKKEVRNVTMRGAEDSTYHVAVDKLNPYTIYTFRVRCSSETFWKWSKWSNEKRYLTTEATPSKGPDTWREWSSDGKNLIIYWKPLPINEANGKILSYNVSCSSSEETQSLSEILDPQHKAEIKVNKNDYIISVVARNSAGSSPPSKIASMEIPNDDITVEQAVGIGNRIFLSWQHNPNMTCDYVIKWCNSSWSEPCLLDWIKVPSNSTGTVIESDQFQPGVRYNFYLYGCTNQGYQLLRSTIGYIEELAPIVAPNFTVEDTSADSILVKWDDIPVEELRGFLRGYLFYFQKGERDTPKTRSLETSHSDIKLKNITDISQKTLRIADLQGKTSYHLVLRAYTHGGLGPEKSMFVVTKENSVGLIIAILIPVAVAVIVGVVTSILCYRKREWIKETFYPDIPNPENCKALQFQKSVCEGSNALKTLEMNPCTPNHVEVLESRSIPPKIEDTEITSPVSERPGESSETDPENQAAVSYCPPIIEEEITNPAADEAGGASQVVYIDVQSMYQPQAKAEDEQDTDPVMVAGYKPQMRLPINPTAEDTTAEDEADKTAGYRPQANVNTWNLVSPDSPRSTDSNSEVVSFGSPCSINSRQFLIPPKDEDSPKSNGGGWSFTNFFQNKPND

[3] = target: T3, V5-His-tagged murine soluble LIFR, secreted by HEK 293 cells (mouse) (UniProt P42703); assay: GST pull-down, HEK supernatant with msLIFR as prey, anti-V5 Western blot
T3 sequence (looked up): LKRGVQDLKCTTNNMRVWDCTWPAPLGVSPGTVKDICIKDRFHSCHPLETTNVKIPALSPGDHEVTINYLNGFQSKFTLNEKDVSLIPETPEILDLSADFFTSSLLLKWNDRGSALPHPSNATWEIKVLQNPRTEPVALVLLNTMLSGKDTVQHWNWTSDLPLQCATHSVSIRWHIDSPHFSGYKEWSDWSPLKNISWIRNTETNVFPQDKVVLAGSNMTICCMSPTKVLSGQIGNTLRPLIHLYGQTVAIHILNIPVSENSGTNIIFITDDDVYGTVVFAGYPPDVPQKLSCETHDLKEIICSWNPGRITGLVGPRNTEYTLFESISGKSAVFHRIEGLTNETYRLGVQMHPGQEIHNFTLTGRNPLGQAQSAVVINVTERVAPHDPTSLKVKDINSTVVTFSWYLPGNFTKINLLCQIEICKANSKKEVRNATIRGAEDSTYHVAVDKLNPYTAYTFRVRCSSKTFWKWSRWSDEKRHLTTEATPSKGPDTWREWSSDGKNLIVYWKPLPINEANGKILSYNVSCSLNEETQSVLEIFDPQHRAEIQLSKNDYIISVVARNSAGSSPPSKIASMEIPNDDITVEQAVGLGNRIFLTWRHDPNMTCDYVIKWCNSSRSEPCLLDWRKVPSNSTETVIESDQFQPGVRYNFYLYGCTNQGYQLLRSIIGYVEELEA

binding [1]: binds
binding [2]: binds
binding [3]: binds
B1: GST fusion protein of the mature murine EPO splice variant mS (complete loss of exon 4), expressed in E. coli (ligand, not shown: a dimerising Fc or GST)
chain: APPRLICDSRVLERYILEAKEAENVTMGCAEGPRLSENITVPDTKVNFYAWKRMEKELMSPPDTTPPAPLRTLTVDTFCKLFRVYANFLRGKLKLYTGEVCRRGDR
